Measurements published in PubChem BioAssay (EPA / NIEHS).
Values joined by “and” are separate entries in the source; they are usually repeats but may differ in a detail not shown here. Equal values may be shown once. Inconclusive results, whose numbers are uncertain, are shown with a selection of clear calls. Where the call is inconclusive, the potency comes from a doubtful curve fit. Some compounds were tested as several samples or in several runs, with calls that do not always agree. Active and inactive are the calls of the source. The calls were made as follows: active = hit-call score of the fitted dose curve at least 0.9, where 1 is the maximum; inconclusive = response in the unintended direction; inactive = score below 0.9.

assay: ATG_M_06_TRANS: Attagene TRANS-FACTORIAL HepG2 Assay for M06 Transcription Factor (Internal Marker) (AID 2282983); conditions: HepG2 Attagene TRANS M06 internal marker reporter;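 as to AC50: potency for rise in reporter mRNA above DMSO baseline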
Procedure: ATG_TRANS is a cell-based, multiplexed-readout assay that uses HepG2, a human liver cell line, with measurements taken at 24 hours after chemical dosing in a 24-well plate.ATG_M_06_TRANS is one of 30 assay component(s) measured or calculated from the ATG_TRANS assay. It is designed to make measurements of mRNA induction, a form of inducible reporter, as detected with fluorescence intensity signals by Reverse transcription polymerase chain reaction (RT-PCR) and Capillary electrophoresis technology.Data from the assay component ATG_M_06_TRANS was analyzed into 1 assay endpoint. This assay endpoint, ATG_M_06_TRANS, was analyzed in the positive analysis fitting direction relative to DMSO as the negative control and baseline of activity. Using a type of inducible reporter, measures of mRNA for gain-of-signal activity can be used to understand the background control at the transcription factor-level as they relate to the gene . Furthermore, this assay endpoint can be referred to as a secondary readout, because this assay has produced multiple assay endpoints where this one serves a background control function. To generalize the intended target to other relatable targets, this assay endpoint is annotated to the background measurement intended target family, where the subfamily is internal marker.
Human liver HepG2 cells are transiently transfected with multiple reporter transcription units (MRTUs) in 6-well plates using FuGene 6 reagent (Roche; 3 ml FuGene/1 mg DNA). The MRTU constructs are regulated by a cis-regulating element (promoter). […] A major difference between the CIS and TRANS system is that in CIS activities of endogenous TFs are measured, whereas the TRANS assay evaluates changes in activities of exogenous, chimeric NR-Gal4 proteins. […] At the end of 24 hour incubation, total RNA was isolated using TriZol reagent (Invitrogen). The isolated RNA is then reverse-transcribed using oligo(dT) primer and Mo-MLV reverse transcriptase (Invitrogen) with DNAse I (Ambion) treatment for 30 min. The one-tenth of the produced cDNA was amplified by PCR using Taq DNA polymerase (Invitrogen) and two reporter sequence-specific primers. The PCR products were fluorescently labeled by primer extension with 6-arboxyfluorescein (6-FAM) 5'-labeled reporter sequence-specific primer (2 min at 95 C, 20 s at 68 C and 10 min at 72 C) and these products were digested with 5U of HpaI (New England Biolabs) for 2h at 37 C. The fragments were purified using Qiaquick PCR columns (Qiagen), analyzed on an ABI 3130xL genetic analyzer (Applied Biosystems) with peak positions identified by using a set of X-rhodamine (ROX)-labeled MapMarker1000 molecular weight standards (BioVentures). The raw capillary electrophoresis data was processed using Attagraph software (Attagene).

SMILES | AC50 | outcome
N#CCCC(Br)(C#N)CBr (stereo not given) | inconclusive: 18.8 µM | –
C=CC(=O)[O][Sn]([CH2]CCC)([CH2]CCC)[CH2]CCC | inconclusive: 0.412 µM | –
CC(=O)c1cc(C(C)(C)C)cc2c1CCC2(C)C | inconclusive: 100 µM | –
Oc1cccc2cccnc12 | – | inactive
CC(C)NC(=O)N1CC(=O)N(c2cc(Cl)cc(Cl)c2)C1=O | inconclusive: 100 µM | –
CNC(=O)ON=CC(C)(C)SC | inconclusive: 1.63 µM | inactive
ClCC(Cl)CCl | – | inactive
CO/N=C(/C1=NOCCO1)c1ccccc1Oc1ncnc(Oc2ccccc2Cl)c1F | inconclusive: 17.8 µM | –
COC(=O)NC(=S)Nc1ccccc1NC(=S)NC(=O)OC | inconclusive: 91.6 µM | –
CCC[CH2][Sn]([Cl])([CH2]CCC)[CH2]CCC | inconclusive: 0.334 µM | –
COc1ccc(C(c2ccc(OC)cc2)C(Cl)(Cl)Cl)cc1 | inconclusive: 100 µM | –
CC(C)(C)N(NC(=O)c1ccc(Cl)cc1)C(=O)c1ccccc1 | – | inactive
CCc1ccc(C(=O)NN(C(=O)c2cc(C)cc(C)c2)C(C)(C)C)cc1 | – | inactive
COP(=S)(OC)SCn1nnc2ccccc2c1=O | inconclusive: 100 µM and inconclusive: 50 µM | inactive
N#C/C=C/c1ccccc1 | – | inactive
CC(C)(C)C(O)(CCc1ccc(Cl)cc1)Cn1cncn1 (stereo not given) | – | inactive
O=C1C2(Cl)C3(Cl)C4(Cl)C(Cl)(Cl)C5(Cl)C3(Cl)C1(Cl)C5(Cl)C24Cl (stereo not given) | inconclusive: 6.57 µM and inconclusive: 10.7 µM | –

An excerpt of these results, field by field:
N#CCCC(Br)(C#N)CBr (stereo not given)
  AC50: inconclusive: 18.8 µM
C=CC(=O)[O][Sn]([CH2]CCC)([CH2]CCC)[CH2]CCC
  AC50: inconclusive: 0.412 µM
CC(=O)c1cc(C(C)(C)C)cc2c1CCC2(C)C
  AC50: inconclusive: 100 µM

Further compounds follow:

SMILES | AC50 | outcome
Clc1ccc(C(c2ccc(Cl)cc2)C(Cl)Cl)cc1 | inconclusive: 33.4 µM | –
Cc1ccc2c(c1N)C(=O)c1ccccc1C2=O | inconclusive: 62.4 µM | –
CC1(C)C(C=C(Cl)Cl)C1C(=O)OC(C#N)c1cccc(Oc2ccccc2)c1 (stereo not given) | inconclusive: 100 µM | inactive
CCCN(CCC)c1c([N+](=O)[O-])cc(S(N)(=O)=O)cc1[N+](=O)[O-] | active: 51.3 µM | –
CCCN(CCOc1c(Cl)cc(Cl)cc1Cl)C(=O)n1ccnc1 | inconclusive: 33.4 µM and inconclusive: 52.2 nM | inactive
Nc1c(Cl)cc([N+](=O)[O-])cc1Cl | inconclusive: 50 µM | –
C=CC(=O)NC(C)(C)CC(C)=O | – | inactive
O=[N+]([O-])c1ccc(Cl)c(Cl)c1 | – | inactive
C=CC(=O)OCC(CC)CCCC (stereo not given) | inconclusive: 100 µM | –
CC(C)(C)c1cc(O)ccc1O | – | inactive
O=S1(=O)OCC2C(CO1)C1(Cl)C(Cl)=C(Cl)C2(Cl)C1(Cl)Cl (stereo not given) | – | inactive
COP(=S)(OC)Oc1ccc(SC)c(C)c1 | – | inactive
CC1(C(=O)Nc2ccc(O)c(Cl)c2Cl)CCCCC1 | – | inactive
CC(C)c1ccc(CO)cc1 | – | inactive
Cc1ccc(O)cc1C | inconclusive: 0.00938 µM | –
COP(=O)(OC)OC(Br)C(Cl)(Cl)Br (stereo not given) | inconclusive: 0.000729 µM | –
OCC(F)(F)OC(F)(F)C(F)(F)OC(F)(F)CO | – | inactive
